Experimental data reported in the supplement of paper PMC10849652.
The list shows a part of the results.

Amino acid sequences for entries named in this document (tags omitted). A change or cut given only in a name is not applied to a line headed by its entry.
UniProt Q8WW01: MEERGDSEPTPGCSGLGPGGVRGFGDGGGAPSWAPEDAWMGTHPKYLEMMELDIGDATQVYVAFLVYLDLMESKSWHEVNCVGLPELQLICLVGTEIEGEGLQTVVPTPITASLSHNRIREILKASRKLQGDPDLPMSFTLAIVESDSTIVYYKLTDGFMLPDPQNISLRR
UniProt O14717: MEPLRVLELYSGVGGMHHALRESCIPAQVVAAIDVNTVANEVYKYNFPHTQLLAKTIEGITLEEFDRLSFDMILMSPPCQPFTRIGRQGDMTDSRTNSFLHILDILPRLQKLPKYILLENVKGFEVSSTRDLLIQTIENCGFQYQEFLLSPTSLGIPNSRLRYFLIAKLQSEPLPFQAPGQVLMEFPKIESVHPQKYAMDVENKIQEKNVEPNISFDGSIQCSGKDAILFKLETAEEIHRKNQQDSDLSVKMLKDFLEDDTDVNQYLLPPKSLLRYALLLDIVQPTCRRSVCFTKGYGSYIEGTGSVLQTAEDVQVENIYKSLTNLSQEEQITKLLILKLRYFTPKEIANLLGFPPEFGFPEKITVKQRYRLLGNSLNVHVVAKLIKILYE
UniProt Q96AY4: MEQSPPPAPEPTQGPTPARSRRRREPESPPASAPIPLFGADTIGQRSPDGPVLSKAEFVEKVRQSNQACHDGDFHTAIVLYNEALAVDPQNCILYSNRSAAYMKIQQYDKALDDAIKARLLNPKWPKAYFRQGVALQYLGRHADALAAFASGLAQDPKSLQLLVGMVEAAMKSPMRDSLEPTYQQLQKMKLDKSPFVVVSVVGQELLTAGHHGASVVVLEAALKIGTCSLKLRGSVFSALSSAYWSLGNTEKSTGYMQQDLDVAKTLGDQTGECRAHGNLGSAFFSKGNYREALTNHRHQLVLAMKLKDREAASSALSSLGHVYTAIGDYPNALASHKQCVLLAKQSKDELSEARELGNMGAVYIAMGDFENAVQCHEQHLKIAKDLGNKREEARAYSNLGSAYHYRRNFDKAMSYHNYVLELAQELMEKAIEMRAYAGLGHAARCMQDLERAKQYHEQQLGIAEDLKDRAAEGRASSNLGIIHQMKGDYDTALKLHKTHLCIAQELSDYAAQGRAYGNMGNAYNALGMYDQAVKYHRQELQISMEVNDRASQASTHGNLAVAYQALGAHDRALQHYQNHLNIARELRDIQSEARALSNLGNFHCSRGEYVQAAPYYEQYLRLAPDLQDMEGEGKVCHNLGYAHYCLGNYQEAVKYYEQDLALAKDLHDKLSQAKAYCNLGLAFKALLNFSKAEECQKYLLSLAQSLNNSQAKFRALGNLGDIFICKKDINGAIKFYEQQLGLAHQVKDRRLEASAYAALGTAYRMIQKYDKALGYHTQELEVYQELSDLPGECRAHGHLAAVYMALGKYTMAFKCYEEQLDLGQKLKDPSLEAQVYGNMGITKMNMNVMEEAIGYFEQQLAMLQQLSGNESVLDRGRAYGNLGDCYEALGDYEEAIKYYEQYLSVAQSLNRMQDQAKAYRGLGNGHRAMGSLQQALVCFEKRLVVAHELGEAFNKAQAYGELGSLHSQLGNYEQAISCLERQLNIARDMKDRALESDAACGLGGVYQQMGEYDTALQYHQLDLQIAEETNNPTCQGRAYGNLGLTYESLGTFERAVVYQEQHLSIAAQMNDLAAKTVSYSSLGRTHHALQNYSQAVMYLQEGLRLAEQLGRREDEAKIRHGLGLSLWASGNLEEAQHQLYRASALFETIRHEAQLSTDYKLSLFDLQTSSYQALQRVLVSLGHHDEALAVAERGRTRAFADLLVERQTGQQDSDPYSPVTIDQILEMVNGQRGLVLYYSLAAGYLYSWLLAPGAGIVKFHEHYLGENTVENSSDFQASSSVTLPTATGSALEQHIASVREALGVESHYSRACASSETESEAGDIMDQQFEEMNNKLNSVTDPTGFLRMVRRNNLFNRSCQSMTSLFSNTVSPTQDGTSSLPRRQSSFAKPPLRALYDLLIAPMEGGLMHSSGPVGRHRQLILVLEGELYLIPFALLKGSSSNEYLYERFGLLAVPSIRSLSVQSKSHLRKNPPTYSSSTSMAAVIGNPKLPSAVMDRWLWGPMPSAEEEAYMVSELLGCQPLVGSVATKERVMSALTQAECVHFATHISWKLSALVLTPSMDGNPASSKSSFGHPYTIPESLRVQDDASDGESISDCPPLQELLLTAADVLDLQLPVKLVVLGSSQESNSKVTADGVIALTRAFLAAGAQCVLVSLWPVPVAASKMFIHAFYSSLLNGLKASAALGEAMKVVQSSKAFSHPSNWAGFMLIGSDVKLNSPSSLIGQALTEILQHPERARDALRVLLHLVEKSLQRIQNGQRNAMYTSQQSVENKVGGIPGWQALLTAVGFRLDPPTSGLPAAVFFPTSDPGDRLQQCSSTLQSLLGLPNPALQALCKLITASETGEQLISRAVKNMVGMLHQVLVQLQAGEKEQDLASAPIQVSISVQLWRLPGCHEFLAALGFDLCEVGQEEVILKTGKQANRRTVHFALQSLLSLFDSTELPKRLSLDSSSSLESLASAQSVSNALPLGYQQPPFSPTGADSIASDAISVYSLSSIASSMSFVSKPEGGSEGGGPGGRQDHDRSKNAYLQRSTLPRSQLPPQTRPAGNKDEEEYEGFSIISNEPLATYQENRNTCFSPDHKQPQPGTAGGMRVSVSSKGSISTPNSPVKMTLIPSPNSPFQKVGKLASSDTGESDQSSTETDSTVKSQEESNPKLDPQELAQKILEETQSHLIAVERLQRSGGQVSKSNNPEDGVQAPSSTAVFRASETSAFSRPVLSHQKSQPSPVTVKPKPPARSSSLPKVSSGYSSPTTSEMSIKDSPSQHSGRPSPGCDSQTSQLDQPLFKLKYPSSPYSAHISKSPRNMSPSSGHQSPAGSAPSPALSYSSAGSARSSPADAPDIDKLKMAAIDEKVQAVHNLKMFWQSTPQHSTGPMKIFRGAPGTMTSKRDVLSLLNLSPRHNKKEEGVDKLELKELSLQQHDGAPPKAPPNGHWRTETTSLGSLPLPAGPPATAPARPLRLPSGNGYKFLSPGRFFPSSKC
UniProt O43715: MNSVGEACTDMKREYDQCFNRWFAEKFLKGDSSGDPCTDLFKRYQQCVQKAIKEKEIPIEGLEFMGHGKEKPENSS
UniProt Q96LD4: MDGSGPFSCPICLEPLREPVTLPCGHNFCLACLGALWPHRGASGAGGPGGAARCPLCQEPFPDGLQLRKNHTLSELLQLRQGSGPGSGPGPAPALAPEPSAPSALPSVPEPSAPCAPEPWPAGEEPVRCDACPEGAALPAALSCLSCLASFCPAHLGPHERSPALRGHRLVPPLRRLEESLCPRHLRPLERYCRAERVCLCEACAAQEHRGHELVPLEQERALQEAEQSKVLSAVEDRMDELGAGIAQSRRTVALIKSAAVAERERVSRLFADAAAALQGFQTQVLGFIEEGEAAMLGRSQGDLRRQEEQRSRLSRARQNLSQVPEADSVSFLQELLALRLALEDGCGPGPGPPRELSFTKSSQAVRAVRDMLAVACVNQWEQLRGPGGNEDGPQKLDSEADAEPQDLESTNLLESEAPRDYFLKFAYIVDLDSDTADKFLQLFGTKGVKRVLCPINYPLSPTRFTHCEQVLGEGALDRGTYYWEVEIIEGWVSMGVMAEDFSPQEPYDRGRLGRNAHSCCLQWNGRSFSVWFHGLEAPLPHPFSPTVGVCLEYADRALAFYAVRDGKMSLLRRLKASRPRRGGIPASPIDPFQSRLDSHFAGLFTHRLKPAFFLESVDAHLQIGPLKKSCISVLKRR
UniProt Q12815: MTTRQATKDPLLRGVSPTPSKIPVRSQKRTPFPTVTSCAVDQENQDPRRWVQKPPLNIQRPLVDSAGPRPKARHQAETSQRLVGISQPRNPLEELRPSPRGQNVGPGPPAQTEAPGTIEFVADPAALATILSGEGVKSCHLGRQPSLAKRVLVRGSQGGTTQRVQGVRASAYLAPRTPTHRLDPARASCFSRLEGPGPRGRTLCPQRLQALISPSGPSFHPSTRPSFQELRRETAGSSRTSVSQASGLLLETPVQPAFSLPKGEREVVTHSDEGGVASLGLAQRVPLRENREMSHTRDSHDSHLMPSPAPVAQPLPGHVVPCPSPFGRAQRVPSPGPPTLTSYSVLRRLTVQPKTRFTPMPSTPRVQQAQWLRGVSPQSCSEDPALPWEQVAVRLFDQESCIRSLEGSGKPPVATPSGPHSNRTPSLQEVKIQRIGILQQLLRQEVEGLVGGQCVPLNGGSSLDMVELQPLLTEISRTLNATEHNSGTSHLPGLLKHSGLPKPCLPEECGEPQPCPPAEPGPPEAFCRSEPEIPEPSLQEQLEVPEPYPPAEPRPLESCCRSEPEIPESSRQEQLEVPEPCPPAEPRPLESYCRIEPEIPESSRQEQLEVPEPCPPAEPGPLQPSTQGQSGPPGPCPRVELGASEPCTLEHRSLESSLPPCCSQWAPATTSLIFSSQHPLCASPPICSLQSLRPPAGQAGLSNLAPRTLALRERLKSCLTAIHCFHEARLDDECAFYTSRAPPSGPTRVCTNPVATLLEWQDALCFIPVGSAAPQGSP
UniProt P53804: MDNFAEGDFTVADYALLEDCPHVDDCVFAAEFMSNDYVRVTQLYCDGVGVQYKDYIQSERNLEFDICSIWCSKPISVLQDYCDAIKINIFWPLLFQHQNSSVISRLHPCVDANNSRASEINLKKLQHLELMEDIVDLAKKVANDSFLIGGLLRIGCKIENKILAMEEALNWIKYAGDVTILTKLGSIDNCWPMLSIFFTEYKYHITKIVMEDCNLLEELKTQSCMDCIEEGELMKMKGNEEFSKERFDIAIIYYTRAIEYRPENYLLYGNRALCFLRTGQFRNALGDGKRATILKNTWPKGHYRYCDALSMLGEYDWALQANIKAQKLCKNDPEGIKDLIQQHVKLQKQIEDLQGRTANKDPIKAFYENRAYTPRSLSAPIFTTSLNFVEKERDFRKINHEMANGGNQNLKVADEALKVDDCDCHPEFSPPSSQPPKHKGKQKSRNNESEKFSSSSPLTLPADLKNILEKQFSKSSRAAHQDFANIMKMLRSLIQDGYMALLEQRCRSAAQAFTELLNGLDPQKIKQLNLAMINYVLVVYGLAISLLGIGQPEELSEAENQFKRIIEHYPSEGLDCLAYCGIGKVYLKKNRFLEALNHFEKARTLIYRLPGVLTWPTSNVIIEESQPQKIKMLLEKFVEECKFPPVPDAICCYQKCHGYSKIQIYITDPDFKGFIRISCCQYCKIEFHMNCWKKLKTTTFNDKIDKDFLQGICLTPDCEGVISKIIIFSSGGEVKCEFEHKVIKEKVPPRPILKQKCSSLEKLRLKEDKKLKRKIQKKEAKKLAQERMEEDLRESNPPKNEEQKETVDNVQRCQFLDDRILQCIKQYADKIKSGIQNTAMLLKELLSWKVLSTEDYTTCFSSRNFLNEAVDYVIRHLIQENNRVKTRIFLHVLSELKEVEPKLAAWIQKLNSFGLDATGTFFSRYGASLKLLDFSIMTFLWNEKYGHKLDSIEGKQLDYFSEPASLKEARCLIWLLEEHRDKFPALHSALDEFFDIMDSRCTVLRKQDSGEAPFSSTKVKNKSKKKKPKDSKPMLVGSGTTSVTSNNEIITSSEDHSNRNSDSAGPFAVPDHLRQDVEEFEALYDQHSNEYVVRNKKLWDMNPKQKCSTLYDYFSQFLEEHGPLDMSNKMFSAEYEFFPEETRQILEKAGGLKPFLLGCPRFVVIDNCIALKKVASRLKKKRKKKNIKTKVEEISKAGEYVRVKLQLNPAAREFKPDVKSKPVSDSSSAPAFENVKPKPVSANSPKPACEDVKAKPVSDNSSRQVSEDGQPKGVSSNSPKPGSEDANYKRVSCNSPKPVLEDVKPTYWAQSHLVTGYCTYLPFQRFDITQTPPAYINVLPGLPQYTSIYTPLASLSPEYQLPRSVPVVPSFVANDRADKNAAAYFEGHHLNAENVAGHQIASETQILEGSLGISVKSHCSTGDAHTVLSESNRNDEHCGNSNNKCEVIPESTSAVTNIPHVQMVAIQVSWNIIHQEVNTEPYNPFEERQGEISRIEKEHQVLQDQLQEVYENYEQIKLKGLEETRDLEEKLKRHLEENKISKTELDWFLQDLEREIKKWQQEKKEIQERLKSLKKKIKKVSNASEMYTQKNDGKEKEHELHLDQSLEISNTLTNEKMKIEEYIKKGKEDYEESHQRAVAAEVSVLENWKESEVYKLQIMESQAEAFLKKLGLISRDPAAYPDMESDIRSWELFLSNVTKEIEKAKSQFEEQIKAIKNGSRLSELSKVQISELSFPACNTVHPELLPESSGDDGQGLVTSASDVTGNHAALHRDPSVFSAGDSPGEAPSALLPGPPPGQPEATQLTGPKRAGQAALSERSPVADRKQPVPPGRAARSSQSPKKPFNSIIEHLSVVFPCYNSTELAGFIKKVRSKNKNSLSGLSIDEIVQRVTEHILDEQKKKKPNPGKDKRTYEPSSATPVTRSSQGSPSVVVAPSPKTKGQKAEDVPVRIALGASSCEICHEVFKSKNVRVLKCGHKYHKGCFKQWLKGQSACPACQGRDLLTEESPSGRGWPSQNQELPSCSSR

Legend:
Assay in all cases: log2 fold change, soluble protein after heating vs DMSO (PISA); higher = thermal stabilisation; K562 lysate, 10 uM; active = over 0.2 and 3.5 SD of the protein, either way, in both replicates (recomputed)
[1] = compound: C#Cc1cccc(Nc2ncnc3cc(OCCOC)c(OCCOC)cc23)c1 [erlotinib]
Outline: (§1)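 A 30 min treatment with 10 μM compound was applied to crude K562 extract at 1 mg/mL protein in PBS pH 7.4 with 1 mM MgCl2. Heating for 3 min spanned 48°C-58°C, after which aliquots were pooled, adjusted to 0.5% NP-40 at 4°C and spun at 21,000xg for 90 min. TMTpro 16plex LC-MS/MS of the supernatant, with channel sums equalised, gave values recorded as log-two fold change in thermal stability against solvent controls, from duplicates.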

[2] = compound: C/C(=N\NC(=O)C1=CC(=CC=C1)S(=O)(=O)N2CCOCC2)/C3=C(C=CC(=C3)Cl)O
Outline: as §1

[3] = compound: C1=CC(=CC=C1C2=NC3=C(N2)C=C(C=C3)C(=O)N)OC4=CC=C(C=C4)Cl
Outline: as §1

[4] = compound: C1=CC2=C(C=CC(=C2)/C=C\3/C(=O)NC(=NCC4=CC=CS4)S3)N=C1
Outline: as §1

[5] = compound: C1=CC2=NC=CN=C2C=C1/C=C/3\C(=O)NC(=O)S3
Outline: as §1

[6] = compound: C1=CC=C(C=C1)C2=NC(=C(N2)C3=CC=NC=C3)C4=CC(=C(C=C4)Cl)O
Outline: as §1

[7] = compound: C1=CC=C2C(=C1)C3=NNC4=CC=CC(=C43)C2=O
Outline: as §1

[8] = compound: C1COCCN1CCN2C3=CC=CC=C3N=C2NC(=O)C4=CC(=CC=C4)[N+](=O)[O-] [IRAK-1-4 Inhibitor I]
Outline: as §1

[9] = compound: C=CC(=O)N1CCC[C@@H](n2nc(-c3ccc(Oc4ccccc4)cc3)c3c(N)ncnc32)C1 [ibrutinib]
Outline: as §1

[10] = compound: CC(=O)c1cnc2ccc(-c3cc(Cl)c(O)c(Cl)c3)nc2c1N[C@H]1CC[C@H](CN(C)C)CC1
Outline: as §1

[11] = compound: CC(C)(C)Cn1c(N)nc2ccc(-c3[nH]c(C(C)(C)C)nc3-c3ccc(F)cc3)nc21 [ralimetinib]
Outline: as §1

[12] = compound: CC(C)(O)CC(=O)NCCn1ccc2ncnc(Nc3ccc(Oc4cccc(C(F)(F)F)c4)c(Cl)c3)c21
Outline: as §1

[13] = compound: CC(C)C1=C2N=C(C=C(N2N=C1)NCC3=CC=CC=C3)NCCCCCCN
Outline: as §1

[14] = compound: CC1=C(C2=C(C=C1)C(=O)C3=CC=CC=C3N2CCCN)C
Outline: as §1

[15] = compound: CC1=C(C=C(C=C1)NC(=O)C2=CC(=CC=C2)N(C)C)NC(=O)C3=CC=C(C=C3)O
Outline: as §1

[16] = compound: CC1=CC=C(C=C1)SC2=C3C=C(SC3=CN=C2)C(=O)N
Outline: as §1

[17] = compound: C1CCN(C1)C(=O)NC2=CC=CC(=C2)NC3=NC=C(C(=N3)NCCC4=CN=CN4)Br
Outline: as §1

[18] = compound: C1CN(CCC1(CC2=CC=C(C=C2)Cl)N)C3=NC=NC4=C3C=CN4
Outline: as §1

[19] = compound: CC1=C(C=C(C=C1)NC(=O)C2=CC(=CC=C2)C(C)(C)C#N)NC3=CC4=C(C=C3)N=CN(C4=O)C
Outline: as §1

[20] = compound: CC1=C(C(CC(=O)N1)C2=CC=C(C=C2)C(F)(F)F)C(=O)NC3=C(C=C4C(=C3)C=NN4)F
Outline: as §1

Measured: log2 fold change

TTC39B (UniProt Q5VTQ0)
inactive: [1] -0.016 | [2] 0.064 | [3] -0.048 | [4] -0.042 | [5] 0.208 | [6] -0.168 | [7] 0.025 | [8] 0.002 | [9] 0.092 | [10] 0.095 | [11] 0.066 | [12] -0.046 | [13] 0.039 | [14] -0.038 | [15] 0.041 | [16] 0.022

TRIOBP (UniProt Q9H2D6)
inactive: [1] -0.06 | [2] 0.048 | [3] -0.052 | [4] -0.067 | [5] -0.012 | [6] -0.011 | [7] -0.049 | [17] 0.051 | [18] -0.007 | [8] 0.009 | [9] -0.013 | [10] -0.162 | [11] 0.034 | [12] 0.017 | [13] 0.011 | [14] 0.095 | [19] 0.023 | [15] -0.034 | [16] 0.062

TSPAN3 (UniProt O60637)
inactive: [1] 0.002 | [2] 0.012 | [3] 0.058 | [4] -0.073 | [6] 0 | [7] -0.135 | [17] 0.006 | [18] 0.032 | [8] 0.091 | [10] 0.008 | [11] -0.069 | [12] -0.025 | [13] 0.05 | [20] -0.173 | [14] -0.099 | [15] 0.135 | [16] -0.04

TSEN15 (UniProt Q8WW01)
inactive: [1] 0.029 | [2] 0.007 | [3] 0.023 | [4] 0.038 | [5] 0.061 | [6] 0.006 | [7] -0.036 | [17] 0.016 | [18] -0.016 | [8] -0.01 | [9] -0.072 | [10] -0.021 | [11] -0.016 | [12] 0.016 | [13] -0.05 | [20] -0.062 | [14] 0.008 | [19] -0.009 | [15] -0.008 | [16] 0.019

TTC37 (UniProt Q6PGP7)
inactive: [1] 0.05 | [2] -0.148 | [3] 0.07 | [4] -0.014 | [5] -0.069 | [6] -0.187 | [7] -0.068 | [8] 0.051 | [9] 0.012 | [10] 0.047 | [11] -0.024 | [12] 0.012 | [13] -0.012 | [20] -0.019 | [14] -0.188 | [19] 0.154 | [15] -0.043 | [16] -0.15

TRDMT1 (UniProt O14717)
inactive: [1] -0.106 | [2] 0.059 | [3] -0.107 | [4] 0.009 | [6] -0.139 | [7] -0.148 | [17] -0.01 | [18] -0.023 | [8] -0.136 | [10] -0.035 | [11] -0.057 | [12] 0.052 | [13] 0.028 | [20] 0.139 | [14] 0.062 | [19] -0.088 | [15] -0.087 | [16] -0.019

TTC28 (UniProt Q96AY4)
inactive: [1] -0.097 | [2] 0.157 | [3] -0.006 | [4] -0.104 | [5] 0.154 | [7] -0.073 | [9] 0.002 | [13] 0.192 | [20] -0.038 | [19] -0.033

TRIAP1 (UniProt O43715)
inactive: [1] 0.194 | [2] 0.007 | [3] 0.036 | [4] 0.067 | [6] -0.014 | [7] 0.051 | [17] 0.05 | [18] 0.133 | [8] -0.101 | [10] -0.113 | [11] 0 | [12] -0.008 | [13] -0.028 | [20] -0.102 | [14] 0.011 | [19] 0.082 | [15] 0.031 | [16] 0.016

TRIM47 (UniProt Q96LD4)
inactive: [1] 0.076 | [2] -0.178 | [3] -0.024 | [4] 0 | [7] -0.013 | [17] -0.204 | [18] 0.111 | [10] -0.111 | [13] -0.163 | [20] -0.074 | [14] -0.083 | [16] -0.165

Random excerpt: 2 records from the list, in no set order.
TRIM47 (UniProt Q96LD4)
inactive: [1] 0.076 | [2] -0.178 | [3] -0.024 | [4] 0 | [7] -0.013 | [17] -0.204 | [18] 0.111 | [10] -0.111 | [13] -0.163 | [20] -0.074 | [14] -0.083 | [16] -0.165

TRIAP1 (UniProt O43715)
inactive: [1] 0.194 | [2] 0.007 | [3] 0.036 | [4] 0.067 | [6] -0.014 | [7] 0.051 | [17] 0.05 | [18] 0.133 | [8] -0.101 | [10] -0.113 | [11] 0 | [12] -0.008 | [13] -0.028 | [20] -0.102 | [14] 0.011 | [19] 0.082 | [15] 0.031 | [16] 0.016

The list continues.

TROAP (UniProt Q12815)
inactive: [1] -0.023 | [2] -0.02 | [3] 0.028 | [4] -0.036 | [5] -0.054 | [6] 0.017 | [7] -0.027 | [17] 0.035 | [18] 0.104 | [8] -0.011 | [9] 0.191 | [10] -0.096 | [11] 0.042 | [12] -0.02 | [13] 0.037 | [20] 0.011 | [14] 0.02 | [19] -0.006 | [15] 0.08 | [16] -0.25

TRIO (UniProt O75962)
inactive: [1] 0.061 | [2] -0.049 | [3] 0.075 | [4] -0.033 | [5] -0.043 | [7] 0.007 | [17] 0.059 | [18] 0.05 | [9] -0.003 | [10] -0.059 | [13] 0 | [20] -0.071 | [14] 0.124 | [19] 0.21 | [16] -0.089

TTLL12 (UniProt V9GY16)
inactive: [1] 0.144 | [2] 0.13 | [3] -0.193 | [4] -0.05 | [5] 0.074 | [6] -0.061 | [7] -0.072 | [17] -0.167 | [18] 0.128 | [8] 0.229 | [9] -0.32 | [11] -0.339 | [12] -0.165 | [13] -0.333 | [19] 0.031 | [15] -0.009

TRPT1 isoform 4 (UniProt Q86TN4)
inactive: [1] 0.101 | [2] -0.127 | [3] -0.055 | [4] 0.066 | [5] -0.033 | [6] 0.143 | [7] 0.038 | [8] -0.126 | [9] 0.269 | [10] -0.047 | [11] -0.01 | [12] 0.072 | [13] 0.078 | [20] 0.133 | [14] 0.035 | [19] 0.004 | [15] -0.056 | [16] -0.064

TTF1 (UniProt Q15361)
inactive: [17] -0.056 | [18] 0.101 | [20] 0.065

TTLL4 (UniProt Q14679)
inactive: [6] 0.155 | [8] 0.07 | [11] -0.011 | [12] -0.059 | [20] -0.205 | [15] -0.106

TRAPPC2L (UniProt H3BQQ8)
inactive: [5] -0.068 | [9] -0.171

TTC3 (UniProt P53804)
inactive: [1] 0.029 | [3] -0.007 | [6] 0.093 | [8] -0.043 | [11] 0.212 | [12] 0.147 | [13] 0.04 | [20] 0.034 | [14] 0.087 | [15] -0.031

TRIM41 (UniProt Q8WV44)
inactive: [2] 0.053 | [4] -0.09 | [7] 0.056 | [17] -0.045 | [18] -0.072 | [10] 0.068 | [14] -0.144 | [19] -0.039 | [16] 0.024

TSEN15, A0A2U3TZM3
inactive: [2] -0.383 | [4] -0.388 | [6] -0.021 | [7] 0.035 | [8] -0.007 | [10] -0.289 | [11] 0.275 | [12] 0.124 | [20] -0.064 | [14] 0.073 | [15] -0.249 | [16] 0.113

TSPYL2 (UniProt Q9H2G4)
inactive: [1] 0.132 | [3] 0.037 | [17] -0.278 | [18] 0.038 | [13] 0.068 | [20] -0.079 | [14] -0.258 | [19] 0.108

TRPS1 isoform 2 (UniProt Q9UHF7)
inactive: [1] -0.001 | [3] -0.074 | [10] -0.009 | [13] -0.028 | [14] -0.296 | [19] 0.198 | [16] 0.347

TRIM67 (UniProt Q6ZTA4)
inactive: [1] -0.019 | [3] 0.034 | [6] 0.032 | [17] -0.201 | [18] 0.054 | [8] -0.021 | [10] 0.051 | [11] 0.164 | [12] 0.019 | [13] -0.018 | [15] 0.061 | [16] -0.061

TSPAN31 (UniProt Q12999)
inactive: [2] 0.007 | [4] -0.057 | [7] -0.004 | [14] 0.114 | [19] -0.088

TSC22D3 isoform 3 (UniProt Q99576)
inactive: [1] -0.025 | [3] -0.03 | [6] 0.122 | [8] 0.155 | [11] 0.29 | [12] -0.184 | [13] -0.049 | [19] 0.143 | [15] 0.175
